# PubChem BioAssay AID1224830 – NIAID, 2016
# Test: 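Genes whose knock-down alters the TNF-alpha reporter response to LPS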 (primary screen)
# Cell system: human THP-1 monocytic leukaemia cells, TNF dual-luciferase reporter clone, PMA-differentiated to macrophage-like cells
# Knock-down reagent: siRNA pool against human genes, 50 nM
# Timing: LPS for 4 h, given about 3 days after siRNA transfection
# Conditions: bacterial LPS (TLR4 ligand), 10 ng/ml
# Measurement: 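Ratio of firefly to renilla light, scaled to the plate median and expressed as a robust z-score per replicate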
# Direction: TNF reporter robust z-score: higher = stronger TNF reporter response to LPS
# Call rule: 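Each well counts as active if its z-score is over 2.8 or under -1.5; controls are left without a call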
# This is one part, drawn at random, of about 18,000 deposited reagents. About 2,900 of them (16%) count as active. 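Calls are made per well; low scores hint the gene aids the LPS response, high scores that it dampens it.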 Entries without a mark were called inactive. Repeated entries: four replicate wells of each siRNA pool. No sequences are given here.
gene,TNF reporter robust z-score
MANSC1,-0.94
MANSC1,-1.01
MANSC1,-0.68
MANSC1,-0.49
ERCC3,1.76
ERCC3,2.58
ERCC3,1.39
ERCC3,1.14
KRTAP12-4,-1.36
KRTAP12-4,-1.58 (active)
KRTAP12-4,-1.56 (active)
KRTAP12-4,-1.85 (active)
ZNF207,-0.6
ZNF207,0.15
ZNF207,0.35
ZNF207,-0.04
SAMD11,1.71
SAMD11,3.78 (active)
SAMD11,1.09
SAMD11,0.84
LRRC28,-1.01
LRRC28,-0.59
LRRC28,-1.32
LRRC28,-1.5
ZNF44,2.32
ZNF44,1.83
ZNF44,1.11
ZNF44,1.79
NIM1K,-0.24
NIM1K,0.6
NIM1K,-0.77
NIM1K,-0.5
GDPD2,0.83
GDPD2,0.29
GDPD2,-0.79
GDPD2,-0.24
SPMAP2,0
SPMAP2,0.24
SPMAP2,-0.58
SPMAP2,-0.25
LETM2,0.16
LETM2,-0.21
LETM2,-0.35
LETM2,0.51
TMEM182,1.94
TMEM182,2.75
TMEM182,1.92
LIN7A,3.16 (active)
LIN7A,4.07 (active)
LIN7A,0.64
LIN7A,1.6
PLOD2,-0.46
PLOD2,-0.5
PLOD2,0.83
PLOD2,1.68
CFP,3.16 (active)
CFP,0.59
CFP,1.77
CFP,2.63
KDM3A,0.05
KDM3A,0.07
KDM3A,-0.74
KDM3A,-0.2
MFSD6L,0.88
MFSD6L,1.23
MFSD6L,0.13
MFSD6L,-0.05
LTA4H,0.21
LTA4H,0.83
LTA4H,0.78
LTA4H,0.86
EZR,-1.11
EZR,0.67
EZR,-1.09
EZR,0.06
GK5,-0.45
GK5,-0.9
GK5,-1.42
GK5,-1.15
ZNG1A,0.21
ZNG1A,0.28
ZNG1A,-0.79
ZNG1A,0.58
RAB40C,0.18
RAB40C,-0.26
RAB40C,0.03
RAB40C,-0.53
SUSD2,-0.28
SUSD2,-0.95
SUSD2,0.19
SUSD2,-0.34
LIMD2,0.3
LIMD2,0.79
LIMD2,-0.31
ZNF26,0.1
ZNF26,1.82
ZNF26,-0.99
ZNF26,-0.38
C1QBP,-0.21
C1QBP,0.69
C1QBP,2.51
C1QBP,0.03
ARL8A,0.03
ARL8A,2.38
ARL8A,1.82
ARL8A,2.01
ZDHHC12,2.57
ZDHHC12,2.2
ZDHHC12,1.84
ZDHHC12,1.06

Entries listed above with an active call, once more:
gene,TNF reporter robust z-score
KRTAP12-4,-1.58 (active)
KRTAP12-4,-1.56 (active)
KRTAP12-4,-1.85 (active)
SAMD11,3.78 (active)
LIN7A,3.16 (active)
LIN7A,4.07 (active)
CFP,3.16 (active)
